Measurements reported in PubChem BioAssay AID1259308 (NCATS, 2017).

Aim: 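Knock-downs that increase output of a recombinant reporter protein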 (primary screen)
Cells: human HEK293 embryonic kidney cells stably expressing firefly luciferase (HEK-CMV-Luc2-Hygro)
Knock-down reagent: single siRNA against human genes, 0.8 pmol siRNA per well
Time to read-out: 72 h
Detection: 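Reporter luminescence and viable-cell signal on separate replicate plates, given as percent of non-targeting control and median/MAD z-scores, plus per-cell luciferase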
Reading the numbers: total luciferase, z-score and total luciferase, % of control: higher = more reporter protein produced; luciferase per cell, z-score: higher = more reporter output per viable cell
Call rule: 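An siRNA counts as active if its total luciferase robust z-score exceeds 3; genes with two or more such siRNAs out of three were retested with fresh siRNAs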
Meaning of the calls: active = raised luciferase; inactive = no rise
This is an unselected part of about 59,000 reagents. About 1,510 of all reagents (2.6%) count as active. 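Calls use total luciferase alone and ignore viability, so some active siRNAs may act by altering cell number.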 Entries without a mark were called inactive. Reagents against one gene are numbered here. Not all columns of the deposit are shown.

no.	target gene	reagent no.	total luciferase, z-score	total luciferase, % of control	luciferase per cell, z-score
1	PTGER2	1	0.367	89.2	-0.17
2	PTGER2	2	1.32	108	0.865
3	PTGER2	3	1	102	1.27
4	MOGAT2	1	-1.58	50.4	-2.18
5	MOGAT2	2	-0.552	70.9	1.14
6	MOGAT2	3	-0.753	66.9	-0.737
7	ZNF558	1	0.0371	82.6	0.795
8	ZNF558	2	1.71	116	1.8
9	ZNF558	3	2.67	135	2.11
10	NEBL	1	-0.692	68.1	-0.153
11	NEBL	2	-0.414	73.7	-0.105
12	NEBL	3	-0.0561	80.8	0.176
13	NEBL	4	0.187	85.6	-0.263
14	NEBL	5	-0.104	79.8	-0.0415
15	NEBL	6	-1.3	56	-1.62

Next part; the last 3 above are carried over.
no.	target gene	reagent no.	total luciferase, z-score	total luciferase, % of control	luciferase per cell, z-score
13	NEBL	4	0.187	85.6	-0.263
14	NEBL	5	-0.104	79.8	-0.0415
15	NEBL	6	-1.3	56	-1.62
16	FAM163B	1	0.969	101	0.498
17	FAM163B	2	0.0882	83.6	-0.152
18	FAM163B	3	1.13	104	1.2
19	ATRAID	1	-0.00738	81.7	0.283
20	ATRAID	2	4.37 (active)	169	3.49
21	ATRAID	3	-1.58	50.5	-1.09
22	PKM	1	0.14	84.7	0.714
23	PKM	2	-1.14	59.2	-1.22
24	PKM	3	-1.18	58.4	-0.291
